The target of this assay is T1, Tumor endothelial marker 1 (TEM1) (human (endogenous in NHDF)) (UniProt Q9HCU0).
T1 sequence: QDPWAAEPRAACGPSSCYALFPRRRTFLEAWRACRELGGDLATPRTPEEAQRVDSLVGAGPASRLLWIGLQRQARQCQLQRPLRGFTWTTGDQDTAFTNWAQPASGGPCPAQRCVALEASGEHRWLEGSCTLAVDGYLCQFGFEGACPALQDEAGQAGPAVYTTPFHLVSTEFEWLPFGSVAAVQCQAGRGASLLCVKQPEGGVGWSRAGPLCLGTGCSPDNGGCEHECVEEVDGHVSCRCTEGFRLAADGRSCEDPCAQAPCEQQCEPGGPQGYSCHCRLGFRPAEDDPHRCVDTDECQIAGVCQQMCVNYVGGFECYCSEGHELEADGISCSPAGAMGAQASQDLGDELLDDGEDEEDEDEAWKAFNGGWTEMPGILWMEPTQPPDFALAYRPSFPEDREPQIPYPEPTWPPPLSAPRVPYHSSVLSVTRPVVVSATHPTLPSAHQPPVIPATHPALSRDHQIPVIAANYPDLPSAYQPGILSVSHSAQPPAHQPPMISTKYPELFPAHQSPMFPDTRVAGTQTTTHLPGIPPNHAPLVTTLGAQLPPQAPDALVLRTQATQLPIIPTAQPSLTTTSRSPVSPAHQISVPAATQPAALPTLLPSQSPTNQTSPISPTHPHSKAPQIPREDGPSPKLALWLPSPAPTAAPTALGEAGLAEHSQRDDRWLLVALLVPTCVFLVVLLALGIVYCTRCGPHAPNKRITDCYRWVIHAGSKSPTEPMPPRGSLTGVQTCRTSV
Description: co-IP; NHDF cultured with 10% FBS DMEM, lysed in 0.1% Triton X-100, 0.1 M Tris pH 8.1 with phosphatase and protease inhibitors; 1000 μg lysate with 1 μg anti-TEM1 antibody (or normal rabbit IgG) and protein A and G agarose beads at 4 °C overnight; Western blot; reverse precipitation with a TGFBR2 antibody. (A western blot detects proteins with antibodies after separation by electrophoresis.)

By UniProt entry, the sequences of proteins in these tests, tags left out. Residues count along the entry.
UniProt P37173, residues 23-567: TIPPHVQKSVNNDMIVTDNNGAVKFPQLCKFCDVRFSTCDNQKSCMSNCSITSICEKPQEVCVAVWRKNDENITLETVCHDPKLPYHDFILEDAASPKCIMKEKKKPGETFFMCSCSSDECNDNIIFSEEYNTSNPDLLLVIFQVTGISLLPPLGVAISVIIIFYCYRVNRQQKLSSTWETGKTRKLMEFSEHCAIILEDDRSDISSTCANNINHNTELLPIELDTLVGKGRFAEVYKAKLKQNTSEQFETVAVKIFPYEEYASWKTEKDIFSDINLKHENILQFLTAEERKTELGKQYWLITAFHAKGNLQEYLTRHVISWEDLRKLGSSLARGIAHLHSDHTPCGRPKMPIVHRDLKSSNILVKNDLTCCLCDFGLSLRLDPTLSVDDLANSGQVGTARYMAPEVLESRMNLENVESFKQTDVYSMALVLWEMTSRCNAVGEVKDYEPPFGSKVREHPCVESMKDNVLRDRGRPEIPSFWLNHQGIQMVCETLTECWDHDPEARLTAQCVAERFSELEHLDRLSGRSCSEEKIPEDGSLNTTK

These are yes or no findings as the source states them, for the method shown. Binding seen in cells or lysates may run through a third protein. Some binding calls cover weakened binding; strength is not graded here.

For “TGF-β receptor II (TGFBR2) (from UniProt P37173 23-567)”, the binding entry is listed as “binds”.

The record behind these values is paper PMC10804696.
